Measurements taken from PubChem BioAssay AID743266 (National Center for Advancing Translational Sciences (NCATS), 2014).
In all, about 410,000 compounds went through this assay and about 310 (0.076%) were called active. This list was built around the results that the source calls inconclusive (neither active nor inactive); the mix of calls is not that of the screen. Calls come from the whole dose curve; as a rule, active = well fitted activation curve with a large enough effect; inconclusive = small, poorly fitted or top-dose-only effect, or another doubt; inactive = no such curve, though single readings can be large or run the other way. Potencies beside an inconclusive call are fits to weak or partial responses and may not hold up.

The chains behind the UniProt entries cited, without tags or fusion partners.
UniProt Q03431, whole entry, looked up: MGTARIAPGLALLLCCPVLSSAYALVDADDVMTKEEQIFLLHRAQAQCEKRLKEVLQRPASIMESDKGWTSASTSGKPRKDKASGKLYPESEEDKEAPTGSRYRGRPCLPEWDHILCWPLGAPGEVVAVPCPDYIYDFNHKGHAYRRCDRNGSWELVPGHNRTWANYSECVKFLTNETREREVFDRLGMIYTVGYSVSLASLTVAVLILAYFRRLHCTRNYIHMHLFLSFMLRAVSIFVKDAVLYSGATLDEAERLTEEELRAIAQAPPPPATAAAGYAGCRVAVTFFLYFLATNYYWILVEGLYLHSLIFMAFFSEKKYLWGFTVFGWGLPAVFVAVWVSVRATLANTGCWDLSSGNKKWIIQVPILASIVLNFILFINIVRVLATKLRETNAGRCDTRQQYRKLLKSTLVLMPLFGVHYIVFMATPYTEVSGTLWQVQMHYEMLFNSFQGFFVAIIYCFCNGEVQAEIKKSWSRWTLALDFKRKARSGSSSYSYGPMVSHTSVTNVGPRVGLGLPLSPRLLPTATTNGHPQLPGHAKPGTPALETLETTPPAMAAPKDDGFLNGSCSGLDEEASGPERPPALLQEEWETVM

What follows are compounds tested against Parathyroid hormone/parathyroid hormone-related peptide receptor (Homo sapiens) (UniProt Q03431) (assay: qHTS for PTHR1 Agonists: Primary Screen). Settings: HEK293 GP2 PTHR1 cells, GloSensor cAMP luminescence, 1 h; activation: at 115 µM (top of the series) unless noted; series mostly up to 115 µM.
Summary of the method: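 HEK-293-derived GP2 cells expressing PTHR1 and a GloSensor cAMP reporter, 3,000/well, plated overnight, given luciferin plus IBMX (each 0.5 mM as added) for 1 h at 37 °C, then compound for 1 h at 37 °C. Luminescence was read after 15 min at room temperature.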
Note: nearly all actives have a fitted effect of over 55% in size.
Potency is the fitted concentration of half-maximal effect.

SMILES | activation | Potency | outcome
COc1cccc(/C=N/Nc2nc(Nc3ccccc3)nc(-n3nc(C)cc3C)n2)c1O | inactive: -12.1% |  | 
CC(=O)N1c2ccc(S(=O)(=O)N3CCC(C(=O)NC(C)c4ccccc4)CC3)cc2CC1C (stereo not drawn) | inactive: -5.93% |  | 
COc1cc(C2CC(=O)Nc3c2c(=O)[nH]c2ncnn32)ccc1O (stereo not drawn) |  | inconclusive: 79.4 µM [activator, partial curve, poor fit] | 
COc1ccc2oc(=O)cc(CN3CCN(c4ccccc4F)CC3)c2c1 | inactive: -33.1% |  | 
COc1cc2c(cc1OC)n(CC(=O)c1ccc(F)cc1)c(=O)n1nc(CCn3nc(C)cc3C)nc21 |  |  | inactive
COc1ccc(CNc2ncnc3c2nnn3C)cc1 |  | inconclusive: 44.7 µM [activator, partial curve, poor fit] | 
Cc1ccc(-c2nc3ccc(C)cn3c2Cc2ccccc2C(F)(F)F)cc1 | inactive: -68.5% |  | 
C=CCC[C@H](Cc1ccc(F)cc1)C(=O)O[C@H](CNC(=O)[C@@H](CC=C)CC(=O)N(CCO)Cc1ccccc1)c1ccccc1 | inactive: -52.5% |  | 
Cc1cc(NC(=O)CSc2nc3ccsc3c(=O)n2CCCCC(=O)O)no1 |  | inconclusive: 28.2 µM [activator, partial curve] | 
COc1ccc(OCC(=O)NNC(=O)C(=O)Nc2cc(OC)ccc2OC)cc1 |  |  | inactive
Cc1cc(C(=O)NCC(=O)OCC(=O)N(C)C2CCCCC2)ccc1[N+](=O)[O-] | inconclusive: 19% [activator] |  | 
CCC(=O)N1CCc2cc(S(=O)(=O)N3CCN(c4cc(C)ccc4C)CC3)ccc21 |  | inconclusive: 44.7 µM [activator, partial curve] | 
CN1CCC(C(=O)C(=O)O)C1=O (stereo not drawn) |  | inconclusive: 39.8 µM [activator, single point] | 
O=C(NC1CCCCCC1)c1ccc(CS(=O)(=O)Cc2ccc(F)cc2)o1 | inactive: -17% |  | 
Cc1cc(OCC(=O)NC(Cc2c[nH]c3ccccc23)C(=O)O)ccc1Cl (stereo not drawn) | inactive: -18.2% |  | 
CC(NC(=O)C1CCN(CCOc2ccc(Cl)cc2)CC1)c1cccc2ccccc12 (stereo not drawn) | inconclusive: -37.2% [activator] |  | 
COC(=O)c1ccc(CNC(=O)/C=C/[C@H]2O[C@@H](n3cc(C)c(=O)[nH]c3=O)C[C@@H]2O)cc1 |  | inconclusive: 126 µM [activator, single point] | 
CCOc1ccc(CCNC(=O)CCCc2nnc3n(CC)c(=O)c4sccc4n23)cc1 |  | inconclusive: 7.94 µM [activator, full curve, poor fit] | 
CCSc1ncc(Cl)c(C(=O)Nc2c(C(=O)Nc3ccccc3)oc3ccccc23)n1 |  | inconclusive: 89.1 µM [activator, partial curve, poor fit] | 
Cc1nc2c(C(F)(F)F)cccc2c2c1CCS2 |  | inconclusive: 4.47 µM [activator, full curve, poor fit] | 
O=C(COc1coc(CN2CCc3ccccc3C2)cc1=O)N1CCOCC1 |  | inconclusive: 89.1 µM [activator, partial curve, poor fit] | 
CCOc1cc(C2c3c(oc4ccccc4c3=O)C(=O)N2Cc2ccc(OC)cc2)ccc1O (stereo not drawn) |  | inconclusive: 141 µM [activator, single point] | 
COc1ccc(C(=O)Nc2ccc(C(=O)Nc3cccnc3)cc2)cc1 | inconclusive: 37.9% [activator] |  | 

SMILES | activation | Potency | outcome
Cc1ccc(-c2cc(C(=O)NN)n[nH]2)o1 | inconclusive: 32.7% [activator] |  | 
Cc1ccc(C(=O)NCCN2CCC(n3c(=O)[nH]c4ccccc43)CC2)cc1C | inactive: -36.3% |  | 
Cc1ccc(/C=C2/NC(=O)N(Cc3ccccc3)C2=O)s1 |  | inconclusive: 5.01 µM [activator, single point] | 
COc1ccc(C)cc1Nc1n[n+](-c2ccccc2)c(-c2ccc(C(=O)O)cc2)s1 | inactive: -11.3% |  | 
O=C(CC1SC(=O)N(c2ccccc2)C1=O)Nc1ccc(Cl)cc1 (stereo not drawn) |  |  | inactive
COCCOC(=O)C1=C(C)Nc2ncnn2C1c1ccccc1 (stereo not drawn) | inconclusive: 125% [activator] [at 57.5 µM] |  | 
COc1ccccc1/C=N/NC(=O)CCn1cnc2ccccc21 |  | inconclusive: 6.31 µM [activator, full curve, poor fit] | 
Cc1cccc(Nc2nc(N3CCOCC3)nc(N3CCOCC3)n2)c1 | inconclusive: 41.1% [activator] |  | 
O=C(Nc1ccc2oc(-c3cccnc3)nc2c1)c1ccc(-c2cccc(OC(F)(F)F)c2)o1 | inactive: -36.4% |  | 
O=C(NC(C(=O)c1ccccc1)N1CCOCC1)c1cccs1 (stereo not drawn) |  | inconclusive: 39.8 µM [activator, single point] | 
O=C(NN=C1CCCC1)c1[nH]c2ccc(Br)cc2c1-c1ccccc1 | inactive: -11.3% |  | 
O=S(=O)(NC1CCN(Cc2ccccc2)CC1)c1cccc(S(=O)(=O)N2CCOCC2)c1 |  | inconclusive: 7.08 µM [activator, partial curve, poor fit] | 
OC(c1ccc(CN2CCCCC2)cc1)c1ncc(-c2ccccc2)[nH]1 (stereo not drawn) |  | inconclusive: 28.2 µM [activator, single point] | 
O=C(CCCc1nc(-c2ccco2)no1)Nc1ccccc1[N+](=O)[O-] |  | inconclusive: 3.16 µM [activator, full curve, poor fit] | 
CCN(CC)S(=O)(=O)c1ccc(O)c(NC(=O)CN2CCc3ccccc3C2)c1 | inconclusive: -40.8% [activator] |  | 
COc1ccc(C2=NN(C(C)=O)C(c3cn(-c4ccccc4)nc3-c3cccs3)C2)cc1 (stereo not drawn) |  |  | inactive
CCCOc1ccc(/C(O)=C2\C(=O)C(=O)N(CCCOC)C23C(=O)N(C)c2ccccc23)cc1 (stereo not drawn) |  | inconclusive: 28.2 µM [activator, single point] | 
COc1ccc(N2CCN(C(=O)CN(Cc3ccc(Cl)cc3)S(C)(=O)=O)CC2)cc1 |  | inconclusive: 56.2 µM [activator, single point] | 
O=c1c2ccccc2nc(/C=C/c2cc(Br)ccc2O)n1CCCO | inactive: -25.1% |  | 
O=C(Nc1ccccc1)c1nn(-c2cccc(C(F)(F)F)c2)ccc1=O |  | inconclusive: 39.8 µM [activator, partial curve, poor fit] | 
CCOc1ccc(NC(=O)CCC(=O)NNC(=O)COc2ccc(C)cc2)cc1 | inconclusive: 6.27% [activator] |  | 
CCOC(=O)C(=O)NNc1ccc(F)cc1 |  |  | inactive
Cc1cccc(C(=O)NCC(c2ccc3c(c2)OCO3)N2CCOCC2)c1 (stereo not drawn) |  | inconclusive: 44.7 µM [activator, partial curve, poor fit] | 

SMILES | activation | Potency | outcome
CC(=O)C[C@H](O)CC(=O)[C@H]1OC(=O)[C@H](C)CCCCc2ccccc21 |  | inconclusive: 50.1 µM [activator, partial curve, poor fit] | 
COc1ccc(C(CNC(=O)c2ccc(C)cc2)N2CCOCC2)cc1 (stereo not drawn) |  | inconclusive: 158 µM [activator, single point] | 
COc1ccc(OCC(O)CON2C(=O)c3ccccc3C2=O)cc1 (stereo not drawn) |  | inconclusive: 39.8 µM [activator, single point] | 
Cc1cc(N2CCN(C)CC2)nc2ccc(NC(=O)c3ccc(C(C)(C)C)cc3)cc12 | inactive: -18.1% |  | 
CCCCNC(=O)/C(C#N)=c1\s/c(=C\c2ccccc2OC(F)F)c(=O)n1CCCOC |  |  | inactive
Cn1c(-n2cccc2)c(-c2c(-c3ccc(F)cc3)[nH]c3c2c(=O)n(C)c(=O)n3C)c(=O)n(C)c1=O |  | inconclusive: 112 µM [activator, single point] | 
CC1CCc2c(sc3nnn(Cc4cccc(C(=O)OC(C)C)c4)c(=O)c23)C1 (stereo not drawn) |  |  | inactive
CC(=O)c1cnc(Nc2ccccc2)s1 |  | inconclusive: 44.7 µM [activator, single point] | 
Cc1ccc2nc(CCCc3nc4ccc(C)cc4[nH]3)[nH]c2c1 |  | inconclusive: 3.16 µM [activator, full curve, poor fit] | 
COc1cccc2c1cc1c(=O)n(CC(=O)N3CCN(c4cccc(C(F)(F)F)c4)CC3)nc(C)n12 |  | inconclusive: 112 µM [activator, single point] | 
CCOc1ccccc1NC(=O)C(CC(C)C)NC(=O)C1CCC(C)CC1 (stereo not drawn) |  | inconclusive: 4.31 µM [activator, full curve, poor fit] | 
O=C(CCCCn1c(=O)[nH]c2ccccc2c1=O)N1CCN(c2cccc(C(F)(F)F)c2)CC1 | inactive: -34.2% |  | 
CCc1nc(-c2cc(S(=O)(=O)N3CCN(c4ccc(OC)cc4)CC3)ccc2OC)no1 |  | inconclusive: 112 µM [activator, partial curve, poor fit] | 
CCC(=O)N1CCc2cc(S(=O)(=O)NCCC(=O)N3CCN(c4ccccc4)CC3)ccc21 | inconclusive: -27.7% [activator] |  | 
COC(c1ccccc1)c1nnc(CCC(=O)N(C)CCOc2ccccc2)o1 (stereo not drawn) | inactive: -19.5% |  | 
CC1=NN(Cc2ccccc2)C(=O)/C1=C\c1ccc(N(C)C)cc1 |  | inconclusive: 7.08 µM [activator, partial curve, poor fit] | 
O=C(CN1CCC(Cc2ccccc2)CC1)NC(=O)NCc1ccco1 |  | inconclusive: 112 µM [activator, single point] | 
OCCN(CCO)CC(O)COc1ccc(Br)cc1 (stereo not drawn) |  | inconclusive: 44.7 µM [activator, partial curve, poor fit] | 
O=C(Cc1ccc([N+](=O)[O-])cc1)N1CCCCCC1 |  | inconclusive: 126 µM [activator, single point] | 
COc1ccc(CCNC(=O)c2ccc3c(c2)N(Cc2ccccc2F)C(=O)c2ccccc2S3=O)cc1OC (stereo not drawn) |  |  | inactive
CCn1cc(C(=O)NCc2ccc(C)cc2)c(=O)c2cc(S(=O)(=O)N(C)C3CCCCC3)ccc21 | inactive: -2.44% |  | 
Cc1c(C(=O)Nc2ccncc2)oc2c1C(=O)CC(C)(C)C2 |  | inconclusive: 15.8 µM [activator, full curve, poor fit] | 

Ordered by number of heavy atoms (low to high): some entries from above.
SMILES | activation | Potency | outcome
CN1CCC(C(=O)C(=O)O)C1=O (stereo not drawn) |  | inconclusive: 39.8 µM [activator, single point] | 
CC(=O)c1cnc(Nc2ccccc2)s1 |  | inconclusive: 44.7 µM [activator, single point] | 
COc1ccc(CNc2ncnc3c2nnn3C)cc1 |  | inconclusive: 44.7 µM [activator, partial curve, poor fit] | 
Cc1ccc(/C=C2/NC(=O)N(Cc3ccccc3)C2=O)s1 |  | inconclusive: 5.01 µM [activator, single point] | 
Cc1c(C(=O)Nc2ccncc2)oc2c1C(=O)CC(C)(C)C2 |  | inconclusive: 15.8 µM [activator, full curve, poor fit] | 
Cc1ccc2nc(CCCc3nc4ccc(C)cc4[nH]3)[nH]c2c1 |  | inconclusive: 3.16 µM [activator, full curve, poor fit] | 
O=C(CCCc1nc(-c2ccco2)no1)Nc1ccccc1[N+](=O)[O-] |  | inconclusive: 3.16 µM [activator, full curve, poor fit] | 
OC(c1ccc(CN2CCCCC2)cc1)c1ncc(-c2ccccc2)[nH]1 (stereo not drawn) |  | inconclusive: 28.2 µM [activator, single point] | 
Cc1cc(OCC(=O)NC(Cc2c[nH]c3ccccc23)C(=O)O)ccc1Cl (stereo not drawn) | inactive: -18.2% |  | 
Cc1cc(C(=O)NCC(=O)OCC(=O)N(C)C2CCCCC2)ccc1[N+](=O)[O-] | inconclusive: 19% [activator] |  | 
COc1ccc(C)cc1Nc1n[n+](-c2ccccc2)c(-c2ccc(C(=O)O)cc2)s1 | inactive: -11.3% |  | 
CCSc1ncc(Cl)c(C(=O)Nc2c(C(=O)Nc3ccccc3)oc3ccccc23)n1 |  | inconclusive: 89.1 µM [activator, partial curve, poor fit] | 
COc1cccc(/C=N/Nc2nc(Nc3ccccc3)nc(-n3nc(C)cc3C)n2)c1O | inactive: -12.1% |  | 
CCCOc1ccc(/C(O)=C2\C(=O)C(=O)N(CCCOC)C23C(=O)N(C)c2ccccc23)cc1 (stereo not drawn) |  | inconclusive: 28.2 µM [activator, single point] | 
